According to the supplement of paper PMC10689618:
Counter-ions that a name gives are not always drawn. This is one part of the list. Repeats are few or missing, and single values can be far off.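 Labelled rat cortical synaptosomes were engulfed by primary human fetal astrocytes. Engulfment equaled a red/green ratio, corrected for calcein live-cell signal and normalized to the plate median. Compounds were toxic when calcein dropped over 30%, and reduced phagocytosis when below 70% of the median above 5 µM.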

Experiments:
Human fetal astrocytes [1] = assay: loss of total cells relative to no-compound high-control median (toxicity); higher = more toxic (fewer cells); details: 24 h
Human fetal astrocytes [2] = assay: synaptosome phagocytosis (pHrodo/calcein intensity ratio) relative to plate median of data wells; higher = more phagocytosis; details: 24 h

Structure (SMILES)	loss of total cells (Human fetal astrocytes [1]; 1.39 µM)	loss of total cells (Human fetal astrocytes [1]; 2.78 µM)	loss of total cells (Human fetal astrocytes [1]; 5.56 µM)	loss of total cells (Human fetal astrocytes [1]; 11.11 µM)	loss of total cells (Human fetal astrocytes [1]; 22.22 µM)	synaptosome phagocytosis (Human fetal astrocytes [2]; 1.39 µM)	synaptosome phagocytosis (Human fetal astrocytes [2]; 2.78 µM)	synaptosome phagocytosis (Human fetal astrocytes [2]; 5.56 µM)	synaptosome phagocytosis (Human fetal astrocytes [2]; 11.11 µM)	synaptosome phagocytosis (Human fetal astrocytes [2]; 22.22 µM)
CN1CCCN=C1/C=C/c1cccs1	1.5%	-7.1%	-9.1%	1.4%	19.8%	96.4%	102%	118%	105%	103%
COc1cc(NS(C)(=O)=O)ccc1Nc1c2ccccc2nc2ccccc12	32.3%	-18.3%	7.5%	36.4%	14.6%	120%	105%	86.4%	91.5%	62.4%
C=C(C)[C@@H]1CC=C(C(=O)O)CC1	11.2%	9.7%	18.1%	0.4%	4.5%	156%	129%	117%	128%	117%
COc1ccc(-c2cc(C(F)F)nn2-c2ccc(S(N)(=O)=O)cc2)cc1F	-36.3%	-17.5%	2.5%	1%	-16.5%	107%	98.6%	98.4%	84%	95.9%
CC(C)(S)[C@@H](N)C(=O)O	16.6%	-5.2%	18.3%	-8.6%	11.3%	116%	114%	108%	122%	110%
Cc1c(N)c(=O)n(-c2ccccc2)n1C	19.2%	11.3%	-23.7%	55.5%	8.5%	136%	128%	108%	168%	116%
Cc1c(NC(=O)c2cccnc2)c(=O)n(-c2ccccc2)n1C	-0.4%	5.4%	23.9%	1.3%	7.6%	115%	118%	115%	118%	133%
O=C(O)c1cn(C2CC2)c2cc(N3CCNCC3)c(F)cc2c1=O	-33.9%	-44.4%	5%	1%	9.7%	88.5%	83.9%	130%	99.7%	109%
COc1ccc(-c2cc(=O)c3ccccc3o2)cc1	30.1%	23.9%	-15.3%	47.1%	26.3%	124%	122%	115%	148%	139%
N#Cc1ccc2c(c1)N(CCCN1CCC(O)CC1)c1ccccc1S2	6.1%	19.9%	0%	6.3%	14.4%	115%	100%	56.5%	112%	124%
CC1=CCc2c(cc3oc(C)cc(=O)c3c2O)OC1	-6.9%	-9.3%	-0.8%	39.4%	-12.2%	144%	111%	100%	119%	78.7%
CC1CCC2(OC1)OC1CC3C4CCC5C[C@@H](O)CCC5(C)C4=CCC3(C)C1[C@@H]2C (stereo partly drawn) [3beta-HYDROXYISOALLOSPIROST-9(11)-ENE]	-21.4%	-4.7%	39.7%	11%	-26.3%	90.2%	83.9%	162%	104%	69.1%
CC1(C)O[C@H]2CC(=O)OC[C@]23[C@H]2CC[C@@]4(C)[C@H](c5ccoc5)OC(=O)[C@H]5O[C@]54[C@]2(C)C(=O)C[C@@H]13	-16.4%	-1.8%	-1.5%	12.2%	19.3%	74%	119%	104%	97.3%	148%
O=C(O)c1cc(-c2ccc(F)cc2F)ccc1O	-3.3%	-14.6%	1.4%	2%	17.3%	111%	127%	117%	117%	107%
CC(C)CCC[C@@H](C)[C@H]1CC[C@H]2[C@@H]3C(=O)C=C4C[C@@H](O)CC[C@]4(C)[C@H]3CC[C@]12C	-14.8%	0.4%	10.3%	12.2%	-5.2%	120%	119%	125%	107%	93.4%
O=C(O)CCC(=O)Nc1ccc(S(=O)(=O)Nc2nccs2)cc1	0.8%	-0.9%	2.1%	-5.5%	16.4%	82.8%	119%	114%	113%	126%
COc1c(OC)c2occc2c2oc(=O)ccc12	-13.4%	6.6%	-18.3%	38.7%	9.3%	99.7%	108%	79.9%	106%	115%
CC(=O)OC1CC2(C)C(C(C)=O)CCC2C2CCC3=CC(=O)CCC3(C)C12 (stereo not given)	-23%	2.5%	-8.8%	16.9%	-4.4%	57.3%	107%	93.9%	110%	85.9%
CS(=O)(=O)CCCCN=C=S	17.7%	19.1%	8.7%	15.5%	29.5%	116%	97.5%	94.6%	78.8%	112%
O=C(/C=C/c1ccccc1)c1ccc(O)cc1	-27.9%	9.3%	-3.8%	-3.9%	7%	78.1%	92.1%	109%	85.5%	44.6%
O=c1cc(-c2ccc(O)cc2)oc2cc(O[C@@H]3O[C@H](CO)[C@@H](O)[C@H](O)[C@H]3O[C@@H]3OC[C@](O)(CO)[C@H]3O)cc(O)c12	-9.1%	4%	29.8%	9%	-11.5%	129%	116%	154%	104%	128%
CC(=O)OCC(=O)[C@@]1(O)CC[C@H]2[C@@H]3C[C@H](C)C4=CC(=O)C=C[C@]4(C)[C@H]3[C@@H](O)C[C@@]21C [6alpha-METHYLPREDNISOLONE ACETATE]	-15.6%	-6.9%	-18.3%	19.6%	8.9%	109%	130%	127%	153%	118%

Individual results from the results shown.
Value for `CS(=O)(=O)CCCCN=C=S` under synaptosome phagocytosis (Human fetal astrocytes [2]; 11.11 µM): 78.8%
Value for `COc1cc(NS(C)(=O)=O)ccc1Nc1c2ccccc2nc2ccccc12` under loss of total cells (Human fetal astrocytes [1]; 5.56 µM): 7.5%

Later entries

Structure (SMILES)	loss of total cells (Human fetal astrocytes [1]; 1.39 µM)	loss of total cells (Human fetal astrocytes [1]; 2.78 µM)	loss of total cells (Human fetal astrocytes [1]; 5.56 µM)	loss of total cells (Human fetal astrocytes [1]; 11.11 µM)	loss of total cells (Human fetal astrocytes [1]; 22.22 µM)	synaptosome phagocytosis (Human fetal astrocytes [2]; 1.39 µM)	synaptosome phagocytosis (Human fetal astrocytes [2]; 2.78 µM)	synaptosome phagocytosis (Human fetal astrocytes [2]; 5.56 µM)	synaptosome phagocytosis (Human fetal astrocytes [2]; 11.11 µM)	synaptosome phagocytosis (Human fetal astrocytes [2]; 22.22 µM)
CN(Cc1cnc2nc(N)nc(N)c2n1)c1ccc(C(=O)NC(CCC(=O)O)C(=O)O)cc1 (stereo not given)	-4.1%	-9.5%	0.3%	14.1%	13%	91.7%	85.2%	82.3%	56.4%	89.6%
Cc1ccnc(NS(=O)(=O)c2ccc(N)cc2)n1	6.8%	-9.2%	0%	3.2%	2.7%	115%	129%	114%	134%	104%
Cc1c(Cl)cccc1Nc1ccccc1C(=O)O	22.7%	17%	17.4%	18%	10.6%	144%	114%	118%	128%	123%
CC(=O)Nc1ccc(O)cc1	-20.7%	-9.5%	0.3%	-7%	12.5%	80.8%	113%	99.8%	116%	112%
c1ccc2c(Cc3c[nH]c4ccccc34)c[nH]c2c1	-13.1%	-1.8%	-2.9%	4.1%	11.9%	117%	107%	120%	106%	93.4%
COc1ccc(-c2oc3cc(OC)c(OC)c(OC)c3c(=O)c2OC)cc1	-15.6%	2.5%	-5.9%	18.2%	11.1%	102%	136%	145%	90.7%	101%
Cc1cc(=O)oc2cc(O)cc(O)c12	-20.5%	-11.2%	2.2%	-3.4%	-8.9%	99.5%	82.3%	91.3%	137%	92.1%
CN(C)[C@@H]1C(=O)C(C(=O)NCN2CCCC2)=C(O)[C@@]2(O)C(=O)C3=C(O)c4c(O)cccc4[C@@](C)(O)[C@H]3C[C@@H]12	-29%	29.4%	11.8%	38.4%	34.6%	108%	130%	122%	121%	144%
Nc1nc(=O)c2nc(CNc3ccc(C(=O)N[C@@H](CCC(=O)O)C(=O)O)cc3)cnc2[nH]1	-0.8%	2.1%	26.1%	0%	22.7%	120%	89.7%	115%	116%	121%
Cc1cccc(C(=O)O)c1O	-9.7%	17%	7.2%	2.1%	18.9%	114%	96.8%	105%	120%	161%
NCCCNCCCCNCCCN [Spermine tetrahydrochloride]	-2.5%	15.5%	29%	17.2%	7.6%	108%	73.2%	22.6%	63.6%	63.6%
CC[C@H]1C(=O)OC[C@@H]1Cc1cncn1C	-13.9%	6.9%	12.5%	10.1%	5.2%	124%	95.3%	113%	118%	115%
C=CC(N)CCC(=O)O (racemic) [(±)-gamma-Vinyl GABA]	13.3%	11.9%	-6.3%	-10.9%	16.4%	141%	92.9%	131%	111%	106%
COc1cc([S+](C)[O-])ccc1-c1nc2cccnc2[nH]1 (stereo not given)	3.2%	22%	20.3%	17.2%	16.7%	114%	117%	101%	124%	117%
CC(=O)O[C@H]1CC[C@@]2(C)[C@H](CC[C@@H]3[C@@H]2CC[C@]2(C)[C@@H]4[C@H](C[C@@H]32)O[C@]2(CC[C@@H](C)CO2)[C@H]4C)C1	-5.4%	4.7%	41.2%	46.5%	-5.6%	105%	104%	136%	110%	84.5%
C/C=C(/C(=C/C)c1ccc(O)cc1)c1ccc(O)cc1	10.4%	-16.6%	-24.4%	4.9%	-20.4%	84.2%	101%	114%	63.6%	97.2%
C#C[C@]1(O)CC[C@H]2[C@@H]3CCC4=C(CCC(=O)C4)[C@H]3CC[C@@]21C	-4.1%	-22.9%	0.9%	1.6%	15.3%	94.7%	91.4%	110%	123%	101%
CC(=O)OCC(=O)[C@@]1(O)CC[C@H]2[C@@H]3CCC4=CC(=O)C=C[C@]4(C)[C@H]3[C@@H](O)C[C@@]21C	-15.1%	-30.8%	-18.1%	-22.2%	30.7%	82.9%	94%	84%	124%	123%
C=CCCCCCCCCC(=O)O	11.3%	-46%	-12.4%	-14.1%	0.3%	138%	104%	118%	85.9%	99.5%
O=C(O)CCCC[C@@H]1CCSS1	4%	13.4%	-10.1%	-2.1%	16.7%	114%	110%	71.4%	132%	170%
COc1ccc2cc3[n+](cc2c1OC)CCc1cc2c(cc1-3)OCO2	16.2%	14.1%	6.5%	0.4%	31.8%	103%	103%	114%	60.8%	98.2%
